Results deposited as PubChem BioAssay AID1224830 (NIAID, 2016).
This is one part, drawn at random, of about 18,000 deposited reagents. Of all reagents, about 2,900 (16%) were called active. 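Calls are made per well; low scores hint the gene aids the LPS response, high scores that it dampens it.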 Repeated entries: four replicate wells of each siRNA pool.

- Test: 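Regulators of TLR4 signalling towards TNF-alpha in macrophage-like cells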 (primary screen)
- System: human THP-1 monocytic leukaemia cells, TNF dual-luciferase reporter clone, PMA-differentiated to macrophage-like cells
- Reagent: siRNA pool against human genes, 50 nM
- Time to read-out: LPS for 4 h, given about 3 days after siRNA transfection
- Treatment: bacterial LPS (TLR4 ligand), 10 ng/ml
- Measured: 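TNF firefly reporter luminescence divided by renilla, normalised to the plate median, then turned into a robust z-score for each replicate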
- Direction: TNF reporter robust z-score: higher = stronger TNF reporter response to LPS
- Call rule: 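Each well counts as active if its z-score is over 2.8 or under -1.5; controls are left without a call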

SPRYD7 | TNF reporter robust z-score: -0.14; call: inactive
SPRYD7 | TNF reporter robust z-score: 0.45; call: inactive
SPRYD7 | TNF reporter robust z-score: 0.7; call: inactive
SPRYD7 | TNF reporter robust z-score: 0.73; call: inactive
KIF18B | TNF reporter robust z-score: 1.25; call: inactive
KIF18B | TNF reporter robust z-score: 0.43; call: inactive
KIF18B | TNF reporter robust z-score: 1.22; call: inactive
KIF18B | TNF reporter robust z-score: 0.57; call: inactive
DDX28 | TNF reporter robust z-score: 0.74; call: inactive
DDX28 | TNF reporter robust z-score: 0.98; call: inactive
DDX28 | TNF reporter robust z-score: -0.55; call: inactive
DDX28 | TNF reporter robust z-score: 0.83; call: inactive

Continued (2 carried over from the part before).
DDX28 | TNF reporter robust z-score: -0.55; call: inactive
DDX28 | TNF reporter robust z-score: 0.83; call: inactive
DRC4 | TNF reporter robust z-score: -0.73; call: inactive
DRC4 | TNF reporter robust z-score: -0.39; call: inactive
DRC4 | TNF reporter robust z-score: -0.5; call: inactive
DRC4 | TNF reporter robust z-score: -1.02; call: inactive
GID4 | TNF reporter robust z-score: -1.06; call: inactive
GID4 | TNF reporter robust z-score: -0.85; call: inactive
GID4 | TNF reporter robust z-score: -1.66; call: active
GID4 | TNF reporter robust z-score: -0.58; call: inactive
